Measured values published in US20040161798A1.
Results are given in words; binding and its absence hold for the method and conditions named. Some binding calls cover weakened binding; strength is not graded here. Sequences can lack the tags named with a protein. Values belong to the binder of their own block, whether it stands above or below them.

How the values were obtained:
GST-Pre1 [1] = molecular target: T1, GST-Pre1 (UniProt P22141); experiment: protein retained on TentaGel beads with scrambled peptide, Western blot
T1 sequence (looked up): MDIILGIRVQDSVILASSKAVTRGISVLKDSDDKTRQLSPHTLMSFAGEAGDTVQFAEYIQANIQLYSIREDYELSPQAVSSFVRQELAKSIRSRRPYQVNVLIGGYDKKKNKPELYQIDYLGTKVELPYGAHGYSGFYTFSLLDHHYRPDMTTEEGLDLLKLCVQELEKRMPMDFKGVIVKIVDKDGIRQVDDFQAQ

GST-Pre1 [2] = molecular target: T1, GST-Pre1; experiment: dilution assay on TentaGel beads, Western blot

binding (GST-Pre1 [1]): binds
B1: Pre1bpscram (peptide)
peptide: SEFARDLAYGEYSQHVRWTHERATSR
modifications: attached to TentaGel resin in the bead assays

binding (GST-Pre1 [2]): binds
B2: Pre1bp (peptide)
peptide: SHSTARGEQERAAVYLWFTYDHRSER
modifications: attached to TentaGel resin in the bead assays
